# ± gives the standard deviation of the averaged measurements. The list shows a part of the results, in another mix than the full data. Small differences around the control level are noise.
# The chains behind the UniProt entries cited, without tags or fusion partners. Where a name states a change or a piece, a line headed by the entry shows the natural chain unless it says otherwise.
# UniProt Q14761: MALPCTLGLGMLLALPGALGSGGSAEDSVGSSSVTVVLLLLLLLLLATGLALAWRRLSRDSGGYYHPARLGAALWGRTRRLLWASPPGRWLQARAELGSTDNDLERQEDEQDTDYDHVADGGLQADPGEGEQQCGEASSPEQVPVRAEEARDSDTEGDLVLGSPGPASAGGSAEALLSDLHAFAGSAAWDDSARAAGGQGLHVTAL
# UniProt Q16533: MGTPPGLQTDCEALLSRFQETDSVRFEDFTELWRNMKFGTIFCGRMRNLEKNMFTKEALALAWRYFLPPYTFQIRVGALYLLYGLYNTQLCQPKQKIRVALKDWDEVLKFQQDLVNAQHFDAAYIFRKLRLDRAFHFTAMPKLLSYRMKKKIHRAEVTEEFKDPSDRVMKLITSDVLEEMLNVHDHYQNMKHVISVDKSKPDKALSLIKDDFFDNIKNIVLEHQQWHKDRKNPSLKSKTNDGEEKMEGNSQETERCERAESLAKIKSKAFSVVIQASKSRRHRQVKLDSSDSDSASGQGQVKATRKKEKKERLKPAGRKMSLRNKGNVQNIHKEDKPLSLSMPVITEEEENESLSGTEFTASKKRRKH
# UniProt Q15293: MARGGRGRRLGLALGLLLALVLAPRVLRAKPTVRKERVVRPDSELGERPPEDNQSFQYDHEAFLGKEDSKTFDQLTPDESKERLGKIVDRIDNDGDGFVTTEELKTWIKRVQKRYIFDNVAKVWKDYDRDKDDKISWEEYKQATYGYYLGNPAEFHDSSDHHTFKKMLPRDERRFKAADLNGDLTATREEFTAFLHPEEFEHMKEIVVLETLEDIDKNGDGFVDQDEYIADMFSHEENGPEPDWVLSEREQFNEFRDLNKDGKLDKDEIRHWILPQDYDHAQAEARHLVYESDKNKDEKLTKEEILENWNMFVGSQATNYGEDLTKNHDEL
# UniProt Q15291, whole entry: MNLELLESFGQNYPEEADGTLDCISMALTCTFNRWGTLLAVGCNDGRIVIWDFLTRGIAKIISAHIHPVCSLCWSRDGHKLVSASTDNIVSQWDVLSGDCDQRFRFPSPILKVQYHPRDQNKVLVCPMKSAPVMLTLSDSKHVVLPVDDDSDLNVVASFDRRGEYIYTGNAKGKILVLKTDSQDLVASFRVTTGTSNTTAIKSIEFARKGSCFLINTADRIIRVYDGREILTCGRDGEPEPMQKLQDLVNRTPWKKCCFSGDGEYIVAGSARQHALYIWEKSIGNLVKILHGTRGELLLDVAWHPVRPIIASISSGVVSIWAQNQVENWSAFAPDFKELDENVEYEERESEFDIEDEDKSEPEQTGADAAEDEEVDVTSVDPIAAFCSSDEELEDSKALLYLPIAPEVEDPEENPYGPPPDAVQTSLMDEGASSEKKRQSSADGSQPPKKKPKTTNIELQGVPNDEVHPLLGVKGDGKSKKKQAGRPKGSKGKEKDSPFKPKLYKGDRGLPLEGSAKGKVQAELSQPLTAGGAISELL
# UniProt Q16763: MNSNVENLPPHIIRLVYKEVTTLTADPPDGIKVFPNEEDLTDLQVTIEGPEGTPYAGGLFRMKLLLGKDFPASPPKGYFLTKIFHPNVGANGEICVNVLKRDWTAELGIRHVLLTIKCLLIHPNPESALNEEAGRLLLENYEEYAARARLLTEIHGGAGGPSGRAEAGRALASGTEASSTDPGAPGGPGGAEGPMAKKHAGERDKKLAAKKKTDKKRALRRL
# UniProt Q14153: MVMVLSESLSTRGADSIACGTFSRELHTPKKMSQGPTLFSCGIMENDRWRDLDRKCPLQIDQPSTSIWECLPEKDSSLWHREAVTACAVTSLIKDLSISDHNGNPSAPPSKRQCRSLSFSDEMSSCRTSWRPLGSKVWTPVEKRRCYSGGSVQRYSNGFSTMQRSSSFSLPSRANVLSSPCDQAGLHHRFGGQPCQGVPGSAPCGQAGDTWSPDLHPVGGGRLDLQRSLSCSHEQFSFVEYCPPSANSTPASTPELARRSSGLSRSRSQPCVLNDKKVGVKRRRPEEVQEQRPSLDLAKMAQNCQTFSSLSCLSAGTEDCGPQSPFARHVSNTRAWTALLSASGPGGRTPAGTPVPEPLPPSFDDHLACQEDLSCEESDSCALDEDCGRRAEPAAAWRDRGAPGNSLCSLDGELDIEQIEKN
# UniProt Q32M88: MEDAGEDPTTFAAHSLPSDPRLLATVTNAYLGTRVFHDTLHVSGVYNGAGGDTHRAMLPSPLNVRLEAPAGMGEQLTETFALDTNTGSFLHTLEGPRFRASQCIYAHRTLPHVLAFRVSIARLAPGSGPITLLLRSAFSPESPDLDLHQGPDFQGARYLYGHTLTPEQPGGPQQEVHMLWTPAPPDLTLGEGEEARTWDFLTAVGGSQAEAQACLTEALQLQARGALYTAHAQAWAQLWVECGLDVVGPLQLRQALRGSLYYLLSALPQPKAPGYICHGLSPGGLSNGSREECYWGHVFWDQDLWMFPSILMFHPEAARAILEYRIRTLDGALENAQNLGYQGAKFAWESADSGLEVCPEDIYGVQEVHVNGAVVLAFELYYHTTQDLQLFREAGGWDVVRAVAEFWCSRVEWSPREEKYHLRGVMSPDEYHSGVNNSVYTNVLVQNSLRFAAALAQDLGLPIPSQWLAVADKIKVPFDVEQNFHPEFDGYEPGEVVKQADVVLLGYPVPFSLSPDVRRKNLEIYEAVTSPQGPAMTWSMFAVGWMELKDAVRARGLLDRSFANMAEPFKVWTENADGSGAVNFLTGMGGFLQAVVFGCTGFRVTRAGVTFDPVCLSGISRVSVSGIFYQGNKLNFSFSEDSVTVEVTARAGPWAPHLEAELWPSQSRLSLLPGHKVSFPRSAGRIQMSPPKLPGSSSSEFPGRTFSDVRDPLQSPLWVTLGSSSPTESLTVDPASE
# UniProt Q16795, whole entry: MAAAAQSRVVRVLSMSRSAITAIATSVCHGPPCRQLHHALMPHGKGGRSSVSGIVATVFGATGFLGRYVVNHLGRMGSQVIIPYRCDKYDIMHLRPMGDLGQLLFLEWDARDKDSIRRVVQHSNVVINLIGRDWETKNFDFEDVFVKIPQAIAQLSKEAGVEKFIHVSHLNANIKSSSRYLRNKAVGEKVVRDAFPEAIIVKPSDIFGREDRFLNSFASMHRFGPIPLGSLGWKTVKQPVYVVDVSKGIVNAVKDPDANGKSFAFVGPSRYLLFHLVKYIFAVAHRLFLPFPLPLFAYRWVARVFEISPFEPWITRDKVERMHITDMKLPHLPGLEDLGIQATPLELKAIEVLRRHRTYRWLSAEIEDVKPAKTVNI
# UniProt Q15007: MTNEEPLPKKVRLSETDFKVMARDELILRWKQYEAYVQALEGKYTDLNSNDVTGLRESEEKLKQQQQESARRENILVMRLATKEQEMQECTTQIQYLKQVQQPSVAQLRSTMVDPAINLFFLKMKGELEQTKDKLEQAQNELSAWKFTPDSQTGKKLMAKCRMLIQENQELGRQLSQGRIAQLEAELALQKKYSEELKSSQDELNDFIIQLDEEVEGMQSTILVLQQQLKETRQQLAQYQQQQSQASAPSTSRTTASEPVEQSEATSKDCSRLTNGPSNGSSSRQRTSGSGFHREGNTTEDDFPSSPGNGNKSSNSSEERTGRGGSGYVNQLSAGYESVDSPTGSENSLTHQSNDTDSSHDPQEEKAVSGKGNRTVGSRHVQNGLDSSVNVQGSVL
# UniProt Q15833: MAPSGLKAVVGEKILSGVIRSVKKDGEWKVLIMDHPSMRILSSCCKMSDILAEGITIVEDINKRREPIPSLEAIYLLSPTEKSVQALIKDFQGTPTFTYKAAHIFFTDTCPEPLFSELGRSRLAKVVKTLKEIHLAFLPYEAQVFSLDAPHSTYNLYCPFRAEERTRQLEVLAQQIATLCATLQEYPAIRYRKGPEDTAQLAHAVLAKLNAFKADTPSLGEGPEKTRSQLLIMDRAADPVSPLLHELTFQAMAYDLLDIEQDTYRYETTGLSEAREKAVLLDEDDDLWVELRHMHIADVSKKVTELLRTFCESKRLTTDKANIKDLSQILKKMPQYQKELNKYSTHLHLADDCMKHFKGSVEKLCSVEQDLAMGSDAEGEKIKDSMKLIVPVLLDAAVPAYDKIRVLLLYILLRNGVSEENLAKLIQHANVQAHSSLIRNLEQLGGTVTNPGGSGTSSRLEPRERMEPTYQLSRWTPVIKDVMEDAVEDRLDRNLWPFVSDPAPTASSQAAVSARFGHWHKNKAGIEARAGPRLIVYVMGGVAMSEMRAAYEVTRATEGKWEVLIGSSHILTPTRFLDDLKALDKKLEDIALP
# UniProt Q15813: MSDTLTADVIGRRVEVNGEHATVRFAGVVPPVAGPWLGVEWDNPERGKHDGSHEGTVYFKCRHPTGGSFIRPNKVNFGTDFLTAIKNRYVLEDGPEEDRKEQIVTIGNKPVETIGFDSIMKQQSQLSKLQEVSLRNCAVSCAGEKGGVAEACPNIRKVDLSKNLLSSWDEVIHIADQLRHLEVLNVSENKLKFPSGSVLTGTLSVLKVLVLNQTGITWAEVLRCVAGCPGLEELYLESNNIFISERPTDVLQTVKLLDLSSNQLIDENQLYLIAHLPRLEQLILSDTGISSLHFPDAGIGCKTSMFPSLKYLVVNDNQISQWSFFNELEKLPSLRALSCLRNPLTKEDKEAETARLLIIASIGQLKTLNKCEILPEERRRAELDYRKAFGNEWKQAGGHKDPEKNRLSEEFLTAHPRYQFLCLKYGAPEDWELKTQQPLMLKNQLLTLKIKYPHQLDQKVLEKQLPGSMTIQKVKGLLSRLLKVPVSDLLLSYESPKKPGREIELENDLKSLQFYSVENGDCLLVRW
# UniProt Q15691: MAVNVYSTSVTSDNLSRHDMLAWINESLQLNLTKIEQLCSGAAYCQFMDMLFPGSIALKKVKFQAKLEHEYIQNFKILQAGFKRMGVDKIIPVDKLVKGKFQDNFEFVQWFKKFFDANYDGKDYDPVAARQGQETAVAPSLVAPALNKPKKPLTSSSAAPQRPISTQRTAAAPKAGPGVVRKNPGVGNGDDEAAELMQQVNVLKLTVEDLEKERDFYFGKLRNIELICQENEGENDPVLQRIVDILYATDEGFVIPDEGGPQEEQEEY
# UniProt Q15633: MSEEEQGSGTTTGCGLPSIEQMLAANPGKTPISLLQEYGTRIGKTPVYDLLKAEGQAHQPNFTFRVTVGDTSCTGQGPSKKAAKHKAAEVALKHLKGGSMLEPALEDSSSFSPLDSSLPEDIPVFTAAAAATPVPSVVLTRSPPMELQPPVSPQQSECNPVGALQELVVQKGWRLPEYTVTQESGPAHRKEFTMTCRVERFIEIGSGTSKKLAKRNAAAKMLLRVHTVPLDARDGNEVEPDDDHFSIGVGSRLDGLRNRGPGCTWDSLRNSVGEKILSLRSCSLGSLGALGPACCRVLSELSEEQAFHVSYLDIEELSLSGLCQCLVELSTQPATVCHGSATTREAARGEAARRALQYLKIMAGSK
# UniProt Q15365, whole entry: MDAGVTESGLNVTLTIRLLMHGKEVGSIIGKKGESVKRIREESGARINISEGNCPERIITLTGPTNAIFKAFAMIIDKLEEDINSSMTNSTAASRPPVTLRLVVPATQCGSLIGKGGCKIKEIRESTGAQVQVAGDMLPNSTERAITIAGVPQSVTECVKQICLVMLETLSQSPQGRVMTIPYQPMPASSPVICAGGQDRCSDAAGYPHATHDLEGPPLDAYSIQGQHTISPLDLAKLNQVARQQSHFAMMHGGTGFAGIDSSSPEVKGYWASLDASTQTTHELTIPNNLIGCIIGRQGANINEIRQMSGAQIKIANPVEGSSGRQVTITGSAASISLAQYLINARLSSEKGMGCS
# UniProt Q15173: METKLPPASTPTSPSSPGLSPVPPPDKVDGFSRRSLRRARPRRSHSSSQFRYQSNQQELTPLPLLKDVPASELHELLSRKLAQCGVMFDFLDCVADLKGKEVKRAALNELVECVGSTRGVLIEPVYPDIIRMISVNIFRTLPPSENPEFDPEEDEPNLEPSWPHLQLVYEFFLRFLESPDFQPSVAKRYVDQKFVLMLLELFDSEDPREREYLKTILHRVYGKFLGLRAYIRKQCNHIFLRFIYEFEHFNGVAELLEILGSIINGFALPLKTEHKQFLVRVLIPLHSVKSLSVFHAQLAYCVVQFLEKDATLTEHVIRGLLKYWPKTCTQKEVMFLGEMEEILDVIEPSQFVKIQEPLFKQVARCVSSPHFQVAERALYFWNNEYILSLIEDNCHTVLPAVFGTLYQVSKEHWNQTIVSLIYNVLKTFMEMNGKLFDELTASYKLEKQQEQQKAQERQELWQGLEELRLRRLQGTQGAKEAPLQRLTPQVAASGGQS
# Compound: Nc1ncnc2c1ncn2[C@@H]1O[C@H](COP(=O)(O)OP(=O)(O)OP(=O)(O)O)[C@@H](O)[C@H]1O [adenosine triphosphate]
# Assay: NP40-soluble protein abundance relative to vehicle (solubility fold change) (ratio); higher = more soluble protein in presence of ATP
# Procedure, shortened: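 Across three independent experiments, values are fold changes against the detergent-processed vehicle for each replicate, based on vsn-normalised intensities. The samples were Jurkat crude lysate treated with eight concentrations (0.1 to 10 mM) for 10 min at room temperature and then 3 min at 37 °C. Lysate was solubilised with 0.8% NP40 and benzonase, ultracentrifuged, and the supernatant analysed by TMT-labelled LC-MS/MS.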
Target,NP40-soluble protein abundance (concentration: 0.1mM),NP40-soluble protein abundance (concentration: 0.5mM)
TBCC (UniProt Q15814),1.01 ± 0.016,0.99 ± 0.036
UniProt Q14789 and related entries,0.989 ± 0.014,0.998 ± 0.053
UniProt Q27J81 and related entries,0.986 ± 0.067,0.977 ± 0.015
UniProt Q1W6H9,1.15 ± 0.055,1.07 ± 0.054
PTPRCAP (UniProt Q14761),0.832 ± 0.092,0.847 ± 0.097
SNAPC1 (UniProt Q16533),1.05 ± 0.13,1.04 ± 0.024
PPP1R7 (UniProt Q15435),0.998 ± 0.038,0.98 ± 0.046
RCN1 (UniProt Q15293),1 ± 0.023,0.9875 ± 0.0064
TSC22D1 (UniProt Q15714),0.883 ± 0.16,0.956 ± 0.18
UBE3C (UniProt Q15386),0.997 ± 0.097,0.989 ± 0.073
DYNC1H1 (UniProt Q14204),1.06 ± 0.067,1.04 ± 0.036
UniProt Q16877 and related entries,0.933 ± 0.21,1.05 ± 0.041
NSDHL (UniProt Q15738),1.02 ± 0.065,1.02 ± 0.059
DDB1 (UniProt Q16531),1.04 ± 0.093,1.04 ± 0.05
UniProt Q15291 and related entries,0.977 ± 0.046,0.994 ± 0.021
PMVK (UniProt Q15126),0.961 ± 0.021,0.942 ± 0.049
ARHGEF6 (UniProt Q15052),0.982 ± 0.028,1.02 ± 0.035
KPNB1 (UniProt Q14974),0.995 ± 0.026,1.008 ± 0.0084
UniProt Q15056 and related entries,0.975 ± 0.045,0.9495 ± 0.0042
UniProt Q14596 and related entries,1.05 ± 0.21,0.956 ± 0.098

# Part of the list above, with tabs:
Target	NP40-soluble protein abundance (concentration: 0.1mM)	NP40-soluble protein abundance (concentration: 0.5mM)
RCN1 (UniProt Q15293)	1 ± 0.023	0.9875 ± 0.0064
TSC22D1 (UniProt Q15714)	0.883 ± 0.16	0.956 ± 0.18
UBE3C (UniProt Q15386)	0.997 ± 0.097	0.989 ± 0.073
DYNC1H1 (UniProt Q14204)	1.06 ± 0.067	1.04 ± 0.036

# Next results follow:

Target,NP40-soluble protein abundance (concentration: 0.1mM),NP40-soluble protein abundance (concentration: 0.5mM)
UniProt Q460N5 and related entries,1.01 ± 0.047,0.999 ± 0.055
ZNF800 (UniProt Q2TB10),1.03 ± 0.12,1.05 ± 0.1
UBE2S (UniProt Q16763),0.984 ± 0.033,0.985 ± 0.011
FAM53B (UniProt Q14153),1.02 ± 0.23,1.03 ± 0.16
UniProt Q16851 and related entries,1.01 ± 0.047,1.02 ± 0.032
DPYSL2 (UniProt Q16555),1.05 ± 0.066,1.03 ± 0.073
PGGHG (UniProt Q32M88),1 ± 0.1,0.976 ± 0.11
UniProt Q2PPJ7 and related entries,1.04 ± 0.052,0.967 ± 0.047
LGALSL (UniProt Q3ZCW2),1.05 ± 0.068,1.08 ± 0.069
UniProt Q3T8J9-3,1.09 ± 0.056,0.979 ± 0.052
FRG1 (UniProt Q14331),1.05 ± 0.062,1.15 ± 0.098
UniProt Q3YEC7 and related entries,0.998 ± 0.032,0.985 ± 0.038
TSR1 (UniProt Q2NL82),0.934 ± 0.039,0.839 ± 0.056
NONO (UniProt Q15233),1.05 ± 0.021,1.07 ± 0.038
UniProt Q16222 and related entries,1.04 ± 0.053,1.01 ± 0.056
NDUFA9 (UniProt Q16795),1.04 ± 0.084,1.06 ± 0.064
UniProt Q14157-4|Q14157-5|Q14157,0.986 ± 0.011,1.02 ± 0.043
VPS26B (UniProt Q4G0F5),1.09 ± 0.18,1.05 ± 0.13
ADRM1 (UniProt Q16186),0.875 ± 0.041,0.841 ± 0.089
UniProt Q14694 and related entries,1.02 ± 0.028,1.07 ± 0.041

Target,NP40-soluble protein abundance (concentration: 0.1mM),NP40-soluble protein abundance (concentration: 0.5mM)
EEA1 (UniProt Q15075),0.966 ± 0.03,0.984 ± 0.062
MLF2 (UniProt Q15773),0.947 ± 0.058,0.83 ± 0.042
UniProt Q16352,1.08 ± 0.059,1.1 ± 0.094
UniProt Q16576 and related entries,1.04 ± 0.052,1.06 ± 0.051
WTAP (UniProt Q15007),0.944 ± 0.063,0.939 ± 0.061
STXBP2 (UniProt Q15833),1.01 ± 0.046,1.03 ± 0.031
UniProt Q15813 and related entries,1.03 ± 0.035,1.03 ± 0.043
ITPR2 (UniProt Q14571),1.04 ± 0.038,1.08 ± 0.022
TERF2 (UniProt Q15554),0.9877 ± 0.005,1.06 ± 0.053
PPP2R5A (UniProt Q15172),1.04 ± 0.016,1.04 ± 0.015
UniProt Q15019 and related entries,1.02 ± 0.072,1.03 ± 0.054
MAPRE1 (UniProt Q15691),0.908 ± 0.045,0.926 ± 0.047
UniProt Q15633 and related entries,0.959 ± 0.053,0.946 ± 0.033
HAGH (UniProt Q16775),0.999 ± 0.058,1.03 ± 0.029
UniProt Q15365,0.9952 ± 0.0029,0.988 ± 0.033
TRIM25 (UniProt Q14258),1.03 ± 0.061,1.04 ± 0.062
UniProt Q2KHR3 and related entries,1.09 ± 0.031,1.04 ± 0.081
DHX34 (UniProt Q14147),1.23 ± 0.21,1.24 ± 0.25
UniProt Q15173 and related entries,1.12 ± 0.018,0.938 ± 0.12
TRADD (UniProt Q15628),0.99 ± 0.041,0.9433 ± 0.0029

# Source: the supplement of paper PMC6411743
